# Experimental data reported in article PMC3272158 (Nature structural & molecular biology, 2012).
# Experiments:
# LeuT (LeuT-WT) [1] = target: LeuT (LeuT-WT) (Aquifex aeolicus, UniProt O67854, L400S); test: biochemical; conditions: read-out: % residual binding compared to that in the absence of CMI, at 1 mM CMI
# LeuT (LeuT-WT) [2] = target: LeuT (LeuT-WT) (Aquifex aeolicus, UniProt O67854, F253A); test: biochemical; conditions: read-out: % residual binding compared to that in the absence of CMI, at 1 mM CMI
compound,measurement,setting,value
CN(C)CCCN1c2ccccc2CCc2ccc(Cl)cc21 [clomipramine],remaining activity at 1000 µM,LeuT (LeuT-WT) [1],95.6%
same,remaining activity at 1000 µM,LeuT (LeuT-WT) [2],5.8%
